Experimental data: patent WO2017192589A1
No constants are given. Whether binding was seen depends on the method and setting. Binding calls can cover weak binding; strength is not graded here.

How the values were obtained:
[1] = target: hemagglutinin (HA) of A/Hong Kong/1-4-MA21-1/1968 (H3N2), HA0 (influenza A virus A/Hong Kong/1-4-MA21-1/1968 (H3N2)); assay: X-ray co-crystal structure
[2] = target: hemagglutinin (HA) of A/Hong Kong/1-4-MA21-1/1968 (H3N2), HA0 (influenza A virus A/Hong Kong/1-4-MA21-1/1968 (H3N2)); assay: negative stain EM

Binder | binding [1] | binding [2]
16.a.26 Fab (Fab, V domains shown) VH: QVQLVQSGPEVKKPGASVKVSCKASGYSFSRYGISWVRQAPGQGLEWLGWISGYTGNTNYAQKFQGRVTMTTDTSTSTASMELRSLRSDDTAVYYCARDKKQGEVVLPAASFRWFAPWGQGTLVTVSS VL: DIQMTQSPVSLSASVGDRVTITCRASQSIGKFLNWYQQKPGRAPKLLIYYASNLETGGPSRFSGRGSETEFSLTISSLQPEDFATYYCQQSNNVPHTFGQGTKLEIK | binds | –
56.a.09 Fab (Fab, V domains shown) VH: QVQLQQSGPGLVKPSQTLSLTCVISGDTVSSNRAAWNWIRQSPSRGLEWLGRTYYRSKWYTDYAVSVKSRITITPDTSKNQFSLQMKSVTPEDTAVYYCARGSAMIFGIVIILESWGQGTLVTVSS VL: LRDRRVDTVSLSLSPGERATLSCRASQSVASSYLAWYQQKPGQAPRLLIYGASSRATGVPDRFSGSGSGTDFILTISRLEPEDFAVYYCQQYDGSQYTFGQGTKLEIK | binds | binds
31.a.83 Fab (Fab, V domains shown) VH: EVQLLESGGGLVQPGESLRVSCAASGFTFRDSALSWVRQAPGKGLEWVSAISGNGGATYYADTVKGRFTISRDNSQTTLYLQMNSLRADDTATYYCAKDESPPIYNLMPGYYSTYYYMDVWGKGTTVTVSS VL: EIVMTPGPVTLSVSPGETATLSCRASQSVRSNLAWYQQKPGQAPRLLIYGASTRATDIPARFSGSGSGTEFTLSISSLQSDDFAVYYCQQYNHWLRTFGQGTKLEIK | binds | –
